From the supplement of paper PMC10849652
The other results are listed elsewhere or left out. Residues, ends and D or L forms follow the SMILES beside them. *: point of attachment. Cbz = O=C(OCc1ccccc1)*

Chains of the proteins cited; added tags and fusions are not shown. Lines headed by an entry give the natural chain unless they say otherwise; changes in a name come on top.
UniProt Q9Y3D8, whole entry, looked up: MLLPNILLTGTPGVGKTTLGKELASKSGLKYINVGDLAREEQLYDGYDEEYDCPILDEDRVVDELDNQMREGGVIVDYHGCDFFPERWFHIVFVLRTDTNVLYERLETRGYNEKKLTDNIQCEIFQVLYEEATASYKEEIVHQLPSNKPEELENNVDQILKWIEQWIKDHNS
UniProt Q6QNK2: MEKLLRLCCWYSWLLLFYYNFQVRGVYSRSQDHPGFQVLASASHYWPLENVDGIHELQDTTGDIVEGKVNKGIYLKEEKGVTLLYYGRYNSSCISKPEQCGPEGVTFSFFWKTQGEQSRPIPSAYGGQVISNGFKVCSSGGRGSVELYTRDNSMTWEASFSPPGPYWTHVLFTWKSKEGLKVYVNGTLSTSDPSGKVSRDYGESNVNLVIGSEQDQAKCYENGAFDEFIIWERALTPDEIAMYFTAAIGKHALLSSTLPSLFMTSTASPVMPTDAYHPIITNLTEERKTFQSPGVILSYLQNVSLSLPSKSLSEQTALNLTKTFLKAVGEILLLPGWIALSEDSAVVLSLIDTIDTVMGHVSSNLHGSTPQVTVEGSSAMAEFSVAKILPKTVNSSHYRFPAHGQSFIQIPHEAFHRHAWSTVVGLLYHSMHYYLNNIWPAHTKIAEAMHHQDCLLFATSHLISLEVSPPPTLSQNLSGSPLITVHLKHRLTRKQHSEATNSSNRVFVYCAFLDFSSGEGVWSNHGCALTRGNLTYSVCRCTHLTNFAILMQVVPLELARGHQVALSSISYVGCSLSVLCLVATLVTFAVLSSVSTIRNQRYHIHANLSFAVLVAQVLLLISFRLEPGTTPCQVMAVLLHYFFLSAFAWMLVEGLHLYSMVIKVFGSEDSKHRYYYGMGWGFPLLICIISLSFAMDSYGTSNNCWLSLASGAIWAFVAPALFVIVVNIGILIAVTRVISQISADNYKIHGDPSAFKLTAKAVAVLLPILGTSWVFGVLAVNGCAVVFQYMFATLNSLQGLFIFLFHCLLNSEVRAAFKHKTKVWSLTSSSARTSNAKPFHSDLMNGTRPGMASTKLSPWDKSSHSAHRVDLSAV
UniProt Q9UKA4: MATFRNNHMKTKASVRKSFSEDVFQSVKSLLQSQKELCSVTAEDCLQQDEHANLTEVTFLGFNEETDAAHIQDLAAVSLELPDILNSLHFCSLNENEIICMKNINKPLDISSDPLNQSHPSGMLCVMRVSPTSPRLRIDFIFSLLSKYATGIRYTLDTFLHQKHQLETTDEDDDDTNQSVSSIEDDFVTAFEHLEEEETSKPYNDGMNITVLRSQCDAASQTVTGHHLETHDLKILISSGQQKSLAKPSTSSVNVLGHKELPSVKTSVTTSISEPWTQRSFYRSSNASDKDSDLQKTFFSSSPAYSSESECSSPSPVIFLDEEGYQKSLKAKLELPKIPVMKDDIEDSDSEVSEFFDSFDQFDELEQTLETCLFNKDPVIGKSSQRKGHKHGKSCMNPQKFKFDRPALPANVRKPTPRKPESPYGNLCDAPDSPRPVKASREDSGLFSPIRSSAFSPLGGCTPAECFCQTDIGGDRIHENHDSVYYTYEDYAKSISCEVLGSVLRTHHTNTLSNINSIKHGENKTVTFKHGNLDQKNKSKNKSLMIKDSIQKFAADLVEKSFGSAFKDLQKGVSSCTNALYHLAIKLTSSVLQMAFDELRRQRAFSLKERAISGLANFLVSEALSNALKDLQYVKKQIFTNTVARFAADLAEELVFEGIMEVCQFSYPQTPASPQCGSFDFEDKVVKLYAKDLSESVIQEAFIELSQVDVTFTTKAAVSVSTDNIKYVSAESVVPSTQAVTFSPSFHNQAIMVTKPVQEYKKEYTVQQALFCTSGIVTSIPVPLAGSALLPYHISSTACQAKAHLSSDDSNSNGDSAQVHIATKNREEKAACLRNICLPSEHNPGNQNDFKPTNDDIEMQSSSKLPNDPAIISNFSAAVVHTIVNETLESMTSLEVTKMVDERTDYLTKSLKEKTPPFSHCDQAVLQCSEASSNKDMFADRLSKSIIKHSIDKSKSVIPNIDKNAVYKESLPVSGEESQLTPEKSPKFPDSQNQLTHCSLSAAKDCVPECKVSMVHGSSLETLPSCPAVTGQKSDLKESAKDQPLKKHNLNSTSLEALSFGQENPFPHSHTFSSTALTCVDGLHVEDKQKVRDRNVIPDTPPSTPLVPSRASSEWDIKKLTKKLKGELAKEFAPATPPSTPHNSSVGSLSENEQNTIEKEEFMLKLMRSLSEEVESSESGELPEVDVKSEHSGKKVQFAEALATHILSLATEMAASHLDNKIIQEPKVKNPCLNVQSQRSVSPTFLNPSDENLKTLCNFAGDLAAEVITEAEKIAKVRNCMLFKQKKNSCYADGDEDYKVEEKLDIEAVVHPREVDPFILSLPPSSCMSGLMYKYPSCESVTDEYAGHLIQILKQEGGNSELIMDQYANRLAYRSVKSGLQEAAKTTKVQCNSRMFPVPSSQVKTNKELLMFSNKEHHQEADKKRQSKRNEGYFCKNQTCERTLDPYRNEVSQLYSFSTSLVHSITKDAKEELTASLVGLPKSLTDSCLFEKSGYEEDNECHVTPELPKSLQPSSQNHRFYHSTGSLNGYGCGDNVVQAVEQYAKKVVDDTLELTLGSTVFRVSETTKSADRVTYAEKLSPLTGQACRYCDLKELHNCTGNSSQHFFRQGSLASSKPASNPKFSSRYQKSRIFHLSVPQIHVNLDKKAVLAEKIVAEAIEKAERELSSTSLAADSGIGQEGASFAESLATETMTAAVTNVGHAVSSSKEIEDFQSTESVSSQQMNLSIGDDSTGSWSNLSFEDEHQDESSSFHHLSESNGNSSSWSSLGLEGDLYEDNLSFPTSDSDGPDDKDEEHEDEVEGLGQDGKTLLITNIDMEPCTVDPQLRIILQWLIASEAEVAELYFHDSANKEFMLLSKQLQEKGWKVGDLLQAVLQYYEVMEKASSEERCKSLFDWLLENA
UniProt P51648: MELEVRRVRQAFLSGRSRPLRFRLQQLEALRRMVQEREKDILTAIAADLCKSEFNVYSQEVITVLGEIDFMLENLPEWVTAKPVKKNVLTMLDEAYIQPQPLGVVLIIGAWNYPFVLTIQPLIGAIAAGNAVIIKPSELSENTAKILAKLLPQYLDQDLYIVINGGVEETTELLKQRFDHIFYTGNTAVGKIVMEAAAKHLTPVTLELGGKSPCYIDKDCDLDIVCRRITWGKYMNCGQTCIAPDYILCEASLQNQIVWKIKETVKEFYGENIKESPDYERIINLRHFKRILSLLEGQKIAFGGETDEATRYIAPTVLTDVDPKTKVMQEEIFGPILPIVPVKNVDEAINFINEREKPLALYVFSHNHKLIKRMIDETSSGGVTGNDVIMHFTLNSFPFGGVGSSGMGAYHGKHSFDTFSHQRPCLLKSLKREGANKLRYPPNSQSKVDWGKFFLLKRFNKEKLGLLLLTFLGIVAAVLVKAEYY
UniProt Q96A54: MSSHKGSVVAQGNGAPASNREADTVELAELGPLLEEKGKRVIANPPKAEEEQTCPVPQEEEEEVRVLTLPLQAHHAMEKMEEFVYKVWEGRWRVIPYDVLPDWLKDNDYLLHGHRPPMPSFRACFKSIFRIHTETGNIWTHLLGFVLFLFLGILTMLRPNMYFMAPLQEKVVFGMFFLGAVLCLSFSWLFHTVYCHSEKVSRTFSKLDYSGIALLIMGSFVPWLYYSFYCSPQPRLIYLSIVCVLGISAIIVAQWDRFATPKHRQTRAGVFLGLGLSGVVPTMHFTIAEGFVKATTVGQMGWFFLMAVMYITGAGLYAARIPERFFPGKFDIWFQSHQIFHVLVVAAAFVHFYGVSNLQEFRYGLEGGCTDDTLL
UniProt P35611: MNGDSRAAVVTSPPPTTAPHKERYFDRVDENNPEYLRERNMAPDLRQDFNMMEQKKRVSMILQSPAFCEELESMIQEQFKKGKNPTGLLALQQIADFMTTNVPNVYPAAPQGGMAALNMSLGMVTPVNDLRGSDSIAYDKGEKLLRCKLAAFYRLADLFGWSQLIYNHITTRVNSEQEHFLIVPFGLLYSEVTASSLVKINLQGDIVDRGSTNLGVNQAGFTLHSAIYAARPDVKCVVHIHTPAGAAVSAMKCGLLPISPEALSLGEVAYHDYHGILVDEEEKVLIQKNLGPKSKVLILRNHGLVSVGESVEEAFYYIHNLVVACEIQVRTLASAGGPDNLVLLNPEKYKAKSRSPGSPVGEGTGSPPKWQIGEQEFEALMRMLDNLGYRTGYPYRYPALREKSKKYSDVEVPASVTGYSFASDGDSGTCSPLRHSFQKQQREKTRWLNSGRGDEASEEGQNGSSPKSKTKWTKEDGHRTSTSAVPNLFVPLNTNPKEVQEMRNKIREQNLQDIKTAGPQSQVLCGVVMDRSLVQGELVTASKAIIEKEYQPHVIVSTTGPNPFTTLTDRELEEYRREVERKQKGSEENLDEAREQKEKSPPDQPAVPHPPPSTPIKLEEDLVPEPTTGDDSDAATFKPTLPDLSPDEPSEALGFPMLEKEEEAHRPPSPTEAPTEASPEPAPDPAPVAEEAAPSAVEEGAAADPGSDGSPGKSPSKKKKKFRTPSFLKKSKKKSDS
UniProt Q13686: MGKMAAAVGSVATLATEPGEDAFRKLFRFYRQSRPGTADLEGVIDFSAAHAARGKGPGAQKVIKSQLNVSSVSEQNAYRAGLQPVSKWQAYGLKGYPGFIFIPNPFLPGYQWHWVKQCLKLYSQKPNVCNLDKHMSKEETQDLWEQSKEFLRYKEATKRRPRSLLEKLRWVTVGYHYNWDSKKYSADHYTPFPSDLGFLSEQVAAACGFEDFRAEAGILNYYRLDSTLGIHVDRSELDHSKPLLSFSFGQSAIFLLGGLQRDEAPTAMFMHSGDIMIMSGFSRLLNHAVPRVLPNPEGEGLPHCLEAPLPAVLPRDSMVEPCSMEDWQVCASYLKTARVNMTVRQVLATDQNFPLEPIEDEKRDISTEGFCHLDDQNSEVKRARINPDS
UniProt P05091: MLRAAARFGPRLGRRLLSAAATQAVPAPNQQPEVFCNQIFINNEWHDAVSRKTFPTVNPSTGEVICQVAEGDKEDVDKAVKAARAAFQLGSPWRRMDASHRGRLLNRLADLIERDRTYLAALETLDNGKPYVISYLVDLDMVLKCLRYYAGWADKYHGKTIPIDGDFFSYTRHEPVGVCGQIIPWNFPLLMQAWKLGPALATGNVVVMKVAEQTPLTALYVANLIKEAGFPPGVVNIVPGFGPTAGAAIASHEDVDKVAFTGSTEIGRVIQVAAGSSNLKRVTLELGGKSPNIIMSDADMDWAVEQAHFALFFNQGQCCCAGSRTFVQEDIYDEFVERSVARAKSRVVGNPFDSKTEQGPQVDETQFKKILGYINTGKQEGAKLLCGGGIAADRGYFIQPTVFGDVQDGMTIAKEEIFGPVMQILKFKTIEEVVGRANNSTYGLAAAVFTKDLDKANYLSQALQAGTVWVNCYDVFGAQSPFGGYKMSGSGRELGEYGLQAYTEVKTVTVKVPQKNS
UniProt Q9H2P0: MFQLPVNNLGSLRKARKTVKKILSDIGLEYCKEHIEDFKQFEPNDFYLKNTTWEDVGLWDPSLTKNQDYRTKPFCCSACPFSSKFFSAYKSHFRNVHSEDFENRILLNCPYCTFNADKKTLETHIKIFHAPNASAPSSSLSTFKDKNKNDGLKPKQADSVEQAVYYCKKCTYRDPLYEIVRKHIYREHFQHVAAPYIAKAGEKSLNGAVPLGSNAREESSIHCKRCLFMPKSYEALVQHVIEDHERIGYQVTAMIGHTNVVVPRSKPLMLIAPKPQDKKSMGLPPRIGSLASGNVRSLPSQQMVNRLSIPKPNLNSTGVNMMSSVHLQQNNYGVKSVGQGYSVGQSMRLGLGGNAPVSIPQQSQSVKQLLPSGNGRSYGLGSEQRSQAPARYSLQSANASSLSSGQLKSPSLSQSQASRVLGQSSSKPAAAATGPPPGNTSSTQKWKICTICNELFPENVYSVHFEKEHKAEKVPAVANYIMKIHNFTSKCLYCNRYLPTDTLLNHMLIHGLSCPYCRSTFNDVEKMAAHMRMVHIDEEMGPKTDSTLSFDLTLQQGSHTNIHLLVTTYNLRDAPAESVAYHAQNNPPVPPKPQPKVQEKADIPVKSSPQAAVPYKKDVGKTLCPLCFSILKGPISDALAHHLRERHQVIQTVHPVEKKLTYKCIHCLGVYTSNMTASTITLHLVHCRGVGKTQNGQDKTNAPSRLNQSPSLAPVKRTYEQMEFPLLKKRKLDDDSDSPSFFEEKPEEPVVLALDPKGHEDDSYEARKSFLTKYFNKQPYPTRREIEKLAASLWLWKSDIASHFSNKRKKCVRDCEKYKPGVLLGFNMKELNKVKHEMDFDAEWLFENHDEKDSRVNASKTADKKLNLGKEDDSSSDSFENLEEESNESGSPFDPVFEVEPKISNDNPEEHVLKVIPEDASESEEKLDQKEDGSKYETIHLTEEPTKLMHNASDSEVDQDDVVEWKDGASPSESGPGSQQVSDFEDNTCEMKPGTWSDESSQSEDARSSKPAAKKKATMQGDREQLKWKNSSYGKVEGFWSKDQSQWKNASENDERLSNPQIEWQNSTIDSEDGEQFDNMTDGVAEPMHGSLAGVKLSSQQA

Tests used:
Assay in all cases: log2 fold change, soluble protein after heating vs DMSO (PISA); higher = thermal stabilisation; K562 cells, 10 uM, 30 min; active = over 0.2 and 3.5 SD of the protein, either way, in both replicates (recomputed)
IRAK-1-4 Inhibitor I = compound: C1COCCN1CCN2C3=CC=CC=C3N=C2NC(=O)C4=CC(=CC=C4)[N+](=O)[O-] [IRAK-1-4 Inhibitor I]
Procedure, shortened: (§1)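 K562 cells at 2×10^6 cells/mL were given 10 μM compound for 30 min. Aliquots then went through 3 min of heating across 48°C-58°C, were pooled, and were extracted in PBS with 0.5% NP-40 at 4°C, and the supernatant after 21,000xg for 90 min was quantified by TMTpro 16plex LC-MS/MS with channel sums equalised. Thermal stability relative to control samples, from duplicates, is given as log2 fold change.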

ibrutinib = compound: C=CC(=O)N1CCC[C@@H](n2nc(-c3ccc(Oc4ccccc4)cc3)c3c(N)ncnc32)C1 [ibrutinib]
Procedure, shortened: as §1

[1] = compound: CC(=O)c1cnc2ccc(-c3cc(Cl)c(O)c(Cl)c3)nc2c1N[C@H]1CC[C@H](CN(C)C)CC1
Procedure, shortened: as §1

ralimetinib = compound: CC(C)(C)Cn1c(N)nc2ccc(-c3[nH]c(C(C)(C)C)nc3-c3ccc(F)cc3)nc21 [ralimetinib]
Procedure, shortened: as §1

[2] = compound: CC(C)(O)CC(=O)NCCn1ccc2ncnc(Nc3ccc(Oc4cccc(C(F)(F)F)c4)c(Cl)c3)c21
Procedure, shortened: as §1

[3] = compound: CC(C)C1=C2N=C(C=C(N2N=C1)NCC3=CC=CC=C3)NCCCCCCN
Procedure, shortened: as §1

[4] = compound: CC(C)C[C@@H](C=O)NC(=O)[C@H](CC(C)C)NC(=O)[C@H](CC(C)C)NC(=O)OCc1ccccc1
Procedure, shortened: as §1

pinometostat = compound: CC(C)N(C[C@H]1O[C@@H](n2cnc3c(N)ncnc32)[C@H](O)[C@@H]1O)[C@H]1C[C@@H](CCc2nc3cc(C(C)(C)C)ccc3[nH]2)C1 [pinometostat]
Procedure, shortened: as §1

[5] = compound: CC1=C(C2=C(C=C1)C(=O)C3=CC=CC=C3N2CCCN)C
Procedure, shortened: as §1

[6] = compound: CC1=C(C=C(C=C1)NC(=O)C2=CC(=CC=C2)C(C)(C)C#N)NC3=CC4=C(C=C3)N=CN(C4=O)C
Procedure, shortened: as §1

[7] = compound: CC1=C(C=C(C=C1)NC(=O)C2=CC(=CC=C2)N(C)C)NC(=O)C3=CC=C(C=C3)O
Procedure, shortened: as §1

[8] = compound: CC1=CC=C(C=C1)SC2=C3C=C(SC3=CN=C2)C(=O)N
Procedure, shortened: as §1

[9] = compound: CC1=NC(=CC=C1)C2=C(N=C(N2)C(C)(C)C)C3=CC4=NC=CN=C4C=C3
Procedure, shortened: as §1

Nexturastat A = compound: CCCCN(Cc1ccc(C(=O)NO)cc1)C(=O)Nc1ccccc1 [Nexturastat A]
Procedure, shortened: as §1

vemurafenib = compound: CCCS(=O)(=O)Nc1ccc(F)c(C(=O)c2c[nH]c3ncc(-c4ccc(Cl)cc4)cc23)c1F [vemurafenib]
Procedure, shortened: as §1

[10] = compound: CCCS(=O)(=O)Nc1ccc(F)c(C(=O)c2c[nH]c3ncc(Cl)cc23)c1F
Procedure, shortened: as §1

[11] = compound: CCCc1cc(C)[nH]c(=O)c1CNC(=O)c1cc(-c2ccnc(N3CCN(C)CC3)c2)cc2c1cnn2C(C)C
Procedure, shortened: as §1

givinostat = compound: CCN(CC)Cc1ccc2cc(COC(=O)Nc3ccc(C(=O)NO)cc3)ccc2c1 [givinostat]
Procedure, shortened: as §1

barasertib = compound: CCN(CCCOc1ccc2c(Nc3cc(CC(=O)Nc4cccc(F)c4)[nH]n3)ncnc2c1)CCOP(=O)(O)O [barasertib]
Procedure, shortened: as §1

[12] = compound: CC1=C(C(CC(=O)N1)C2=CC=C(C=C2)C(F)(F)F)C(=O)NC3=C(C=C4C(=C3)C=NN4)F
Procedure, shortened: as §1

Measured: log2 fold change

AK6 (UniProt Q9Y3D8)
inactive: IRAK-1-4 Inhibitor I -0.051 | ibrutinib -0.014 | [1] -0.132 | ralimetinib 0.067 | [2] -0.175 | [3] -0.309 | [4] 0.039 | pinometostat 0.078 | [5] 0.138 | [6] 0.02 | [7] -0.04 | [8] 0.012 | [9] 0.032 | Nexturastat A -0.056 | vemurafenib 0.1 | [10] 0.053 | [11] 0.076 | givinostat 0.083 | barasertib 0.138

ADGRD1 isoform 4 (UniProt Q6QNK2)
inactive: IRAK-1-4 Inhibitor I -0.16 | [1] -0.107 | pinometostat -0.099 | [5] 0.203 | [9] 0.181 | vemurafenib 0.042 | [11] -0.038

AGTPBP1 isoform 3 (UniProt Q9UPW5)
inactive: IRAK-1-4 Inhibitor I 0.046 | ralimetinib 0.101 | [4] -0.009 | pinometostat -0.034 | [7] 0 | [9] 0.027 | vemurafenib 0.121 | [11] 0.21

AFDN isoform 1 (UniProt P55196)
inactive: IRAK-1-4 Inhibitor I -0.046 | ibrutinib -0.015 | [1] -0.102 | ralimetinib -0.12 | [2] -0.048 | [3] -0.001 | [4] 0.002 | pinometostat -0.072 | [6] 0.035 | [7] 0.083 | [9] 0.03 | Nexturastat A -0.164 | vemurafenib 0.342 | [11] 0.062 | givinostat 0.259 | barasertib -0.045

ALG12 (UniProt Q9BV10)
inactive: IRAK-1-4 Inhibitor I 0.036 | ibrutinib 0.054 | [1] -0.05 | [2] 0.041 | [3] 0.065 | pinometostat -0.013 | [5] -0.113 | [6] -0.015 | [8] 0.024 | [9] -0.072 | Nexturastat A -0.014 | vemurafenib -0.008 | [10] 0.049 | [11] -0.032 | givinostat 0.099 | barasertib 0.059

ADGRV1 (UniProt Q8WXG9)
inactive: IRAK-1-4 Inhibitor I -0.08 | ibrutinib -0.111 | [2] 0.018 | pinometostat 0.107 | [12] 0.119 | [6] -0.001 | [9] 0 | Nexturastat A -0.039 | [11] -0.076 | barasertib 0.032

AKAP11 (UniProt Q9UKA4)
inactive: IRAK-1-4 Inhibitor I -0.019 | pinometostat 0.046 | [6] 0.047 | [9] -0.209

AEBP2 (UniProt Q6ZN18)
inactive: IRAK-1-4 Inhibitor I -0.13 | ibrutinib -0.113 | [2] -0.018 | [3] 0.404 | pinometostat -0.107 | [9] 0.257 | Nexturastat A -0.03 | givinostat 0.113 | barasertib 0.24

Reprinted from the results shown (two entries):
ADGRV1 (UniProt Q8WXG9)
inactive: IRAK-1-4 Inhibitor I -0.08 | ibrutinib -0.111 | [2] 0.018 | pinometostat 0.107 | [12] 0.119 | [6] -0.001 | [9] 0 | Nexturastat A -0.039 | [11] -0.076 | barasertib 0.032

AKAP11 (UniProt Q9UKA4)
inactive: IRAK-1-4 Inhibitor I -0.019 | pinometostat 0.046 | [6] 0.047 | [9] -0.209

(cont.)

ALDH3A2 isoform 2 (UniProt P51648)
inactive: IRAK-1-4 Inhibitor I 0.158 | ibrutinib 0.086 | [3] -0.177 | pinometostat -0.008 | [9] -0.236 | vemurafenib -0.032 | givinostat -0.136 | barasertib 0.074

AIF1 (UniProt P55008)
inactive: ibrutinib 0.012 | [1] 0.028 | ralimetinib -0.112 | [2] 0.035 | [3] -0.033 | [4] 0.07 | [6] -0.042 | [7] -0.039 | [8] -0.056 | Nexturastat A 0.048 | vemurafenib -0.112 | [10] 0 | givinostat -0.057 | barasertib -0.102

ADIPOR1 (UniProt Q96A54)
inactive: IRAK-1-4 Inhibitor I -0.077 | ibrutinib -0.076 | ralimetinib -0.062 | [2] -0.065 | [3] -0.161 | [4] 0.223 | pinometostat 0.188 | [12] -0.033 | [6] 0.018 | [7] -0.131 | [8] 0.065 | [9] 0.076 | Nexturastat A 0.079 | vemurafenib -0.061 | [10] -0.001 | [11] -0.01 | givinostat 0.191 | barasertib 0.006

ADD3 isoform 2 (UniProt Q9UEY8)
inactive: IRAK-1-4 Inhibitor I 0.008 | [1] -0.433 | ralimetinib -0.015 | [2] 0.005 | [4] 0.009 | pinometostat 0.108 | [5] -0.063 | [6] 0.034 | [7] -0.021 | [8] -0.08 | [9] -0.017 | Nexturastat A -0.029 | vemurafenib 0.059 | [10] 0.014 | [11] -0.017

ADD1 isoform 4 (UniProt P35611)
inactive: IRAK-1-4 Inhibitor I -0.21 | ibrutinib 0.029 | [2] -0.117 | pinometostat 0.122 | [9] 0.098 | Nexturastat A 0.024 | barasertib 0.03

AFF1 isoform 2 (UniProt P51825)
inactive: IRAK-1-4 Inhibitor I -0.17 | ibrutinib -0.009 | [1] 0.027 | [2] 0.036 | [3] 0.183 | pinometostat 0.161 | [12] 0.158 | [8] -0.171 | [9] 0.02 | Nexturastat A 0.253 | vemurafenib -0.086 | [10] -0.074 | [11] -0.109 | givinostat 0.088 | barasertib -0.078

ALKBH1 (UniProt Q13686)
inactive: IRAK-1-4 Inhibitor I 0.041 | ibrutinib 0.001 | [1] -0.214 | ralimetinib 0.162 | [2] -0.021 | [4] 0.014 | pinometostat 0.015 | [12] -0.004 | [5] 0.06 | [7] 0.122 | [8] 0.041 | [9] -0.179 | Nexturastat A -0.085 | vemurafenib 0.012 | [10] -0.041 | barasertib 0.001

ALDH2 isoform 2 (UniProt P05091)
inactive: ibrutinib -0.1 | [1] -0.133 | ralimetinib -0.18 | [2] 0.029 | [4] 0.063 | [5] 0.087 | [6] 0.075 | [7] -0.049 | [8] -0.106 | Nexturastat A -0.103 | vemurafenib -0.023 | [10] -0.141 | barasertib 0.099

ADCK5 (UniProt Q3MIX3)
inactive: IRAK-1-4 Inhibitor I -0.067 | ralimetinib 0.027 | [2] -0.041 | [3] 0.059 | [4] 0.098 | pinometostat -0.043 | [5] -0.052 | [6] 0.044 | [7] 0.036 | [9] 0.011 | Nexturastat A -0.195 | vemurafenib 0.202 | givinostat 0.032

AIF1L isoform 2 (UniProt Q9BQI0)
inactive: ibrutinib 0.014 | [1] -0.029 | ralimetinib -0.024 | [2] -0.197 | [3] -0.017 | [4] 0.009 | [12] -0.082 | [7] -0.015 | [8] 0 | Nexturastat A -0.307 | vemurafenib 0.075 | [10] -0.02 | [11] -0.049 | givinostat -0.057 | barasertib 0.021

ADNP (UniProt Q9H2P0)
inactive: IRAK-1-4 Inhibitor I -0.051 | [1] -0.233 | pinometostat 0.008 | [12] 0.01 | [6] 0.012 | [9] -0.004 | [11] 0.112

ALDOA (UniProt P04075)
inactive: ibrutinib 0.14 | [1] 0.003 | ralimetinib -0.13 | [3] -0.139 | [4] 0.142 | [12] 0 | [5] 0.085 | [6] -0.096 | [7] 0.038 | [8] -0.025 | vemurafenib 0.008 | [10] -0.077 | [11] 0.07 | givinostat -0.148 | barasertib -0.124

ALDOC (UniProt J3QKP5)
inactive: IRAK-1-4 Inhibitor I 0.014 | ibrutinib 0.205 | [1] -0.185 | ralimetinib -0.091 | [2] 0.001 | [4] 0.23 | pinometostat 0.045 | [12] 0.147 | [5] 0.155 | [6] -0.203 | [7] 0.018 | [8] -0.139 | [9] -0.402 | Nexturastat A 0.157 | vemurafenib -0.456 | [10] -0.181 | [11] -0.051 | barasertib 0.13

AKAP9 isoform 6 (UniProt Q99996)
inactive: IRAK-1-4 Inhibitor I -0.407 | ralimetinib 0.184 | [2] 0.151 | [4] 0.097 | pinometostat 0.491 | [12] -0.083 | [7] 0.203 | [9] -0.408 | Nexturastat A 0.547 | [11] -0.137
